# Assay results reported in patent publication US4624943A, “Aromatic basic-tailed vasopressin antagonists” (SmithKline Beckman Corporation, priority 1985, dated 1986).
# Chains of the proteins cited; added tags and fusions are not shown.
# UniProt Q00788, whole entry: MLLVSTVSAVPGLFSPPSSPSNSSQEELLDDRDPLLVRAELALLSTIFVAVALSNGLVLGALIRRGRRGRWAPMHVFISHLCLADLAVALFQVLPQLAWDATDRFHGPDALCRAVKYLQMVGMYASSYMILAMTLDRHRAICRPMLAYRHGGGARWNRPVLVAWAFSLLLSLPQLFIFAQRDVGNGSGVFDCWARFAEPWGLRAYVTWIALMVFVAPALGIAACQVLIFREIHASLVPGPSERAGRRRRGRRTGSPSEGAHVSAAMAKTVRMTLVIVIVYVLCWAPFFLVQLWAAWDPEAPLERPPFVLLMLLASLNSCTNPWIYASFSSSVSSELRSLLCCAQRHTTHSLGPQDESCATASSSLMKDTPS
# Part of at least one peptide drawing is inferred or uncertain, most often the ends. Numbered stars: 1 amine (or outer) side, 2 acyl side, 3 side chain; on linkers, the order of the positions; unused ones are H or OH. Bridge positions count the residues as written; N and C are the ends. Square brackets hold non-standard residues; d marks the D form. Peptide text beside a SMILES is read from it. * marks the point of attachment. NH(3-aminomethylbenzyl) = NCc1cccc(CN*)c1; NH(4-CH2NH2-benzyl) = NCc1ccc(CN*)cc1; X1 = O=C(CC1(S[*:2])CCCCC1)[*:1]; NH(CH2)5NH2 = NCCCCCN*
# Target: T1, vasopressin receptors (V2 -receptors) (Rattus norvegicus, UniProt Q00788)
# T1 construct: in vivo, in the hydropenic rat; from tissue; host or cells: whole animal (male rat); receptor on renal epithelial cells
# Experiment: Hydropenic Rat Screen (anti-ADH activity in vivo)
# Conditions: hydropenic male rats, intraperitoneal; dose of compound required to lower urine osmolality to 300 m-Osmoles/kg
row,SMILES,ED300
1,"CCOc1ccc(C[C@H]2NC(=O)CC3(CCCCC3)SSC[C@@H](C(=O)N3CCC[C@H]3C(=O)NCc3cccc(CN)c3)NC(=O)[C@H](CC(N)=O)NC(=O)[C@H](C(C)C)NC(=O)[C@H](Cc3ccccc3)NC2=O)cc1 [A, [1-(β-Mercapto-β,β-cyclopentamethylenepropionic acid)-2-(O-ethyl)-D-tyrosine-4-valine-8-1',3'-bis(aminomethyl)benzene-9-desglycinamide]-vasopressin] ([dY](Et)FVNCP-{NH(3-aminomethylbenzyl)}; linker N-5 via X1)",77 µg/kg
2,"CCOc1ccc(C[C@H]2NC(=O)CC3(CCCCC3)SSC[C@@H](C(=O)N3CCC[C@H]3C(=O)NCCCCCN)NC(=O)[C@H](CC(N)=O)NC(=O)[C@H](C(C)C)NC(=O)[C@H](Cc3ccccc3)NC2=O)cc1 [B, [1-(β-Mercapto-β,β-cyclopentamethylenepropionic acid)-2-(O-ethyl)-D-tyrosine-4-valine-8-(1',5'-diaminopentane)-9-desglycinamide]-vasopressin] ([dY](Et)FVNCP-{NH(CH2)5NH2}; linker N-5 via X1)",94.5 µg/kg
3,"CCOc1ccc(C[C@H]2NC(=O)CC3(CCCCC3)SSC[C@@H](C(=O)N3CCC[C@H]3C(=O)O)NC(=O)[C@H](CC(N)=O)NC(=O)[C@H](C(C)C)NC(=O)[C@H](Cc3ccccc3)NC2=O)cc1 [C, [1-(β-Mercapto-β,β-cyclopentamethylenepropionic acid)-2-(O-ethyl)-D-tyrosine-4-valine-8-desarginine-9-desglycinamide]-vasopressin] ([dY](Et)FVNCP-OH; linker N-5 via X1)",> 182 µg/kg
4,"CCOc1ccc(C[C@H]2NC(=O)CC3(CCCCC3)SSC[C@@H](C(=O)N3CCC[C@H]3C(=O)NCc3ccc(CN)cc3)NC(=O)[C@H](CC(N)=O)NC(=O)[C@H](C(C)C)NC(=O)[C@H](Cc3ccccc3)NC2=O)cc1 [D, [1-(β-Mercapto-β,β-cyclopentamethylenepropionic acid)-2-(O-ethyl)-D-tyrosine-4-valine-8-1',4'-bis(aminomethyl)benzene-9-desglycinamide]-vasopressin] ([dY](Et)FVNCP-{NH(4-CH2NH2-benzyl)}; linker N-5 via X1)",195 µg/kg
